PubChem BioAssay AID504774 | Drosophila RNAi Screening Center | 2011
Aim: 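Fly genes whose loss alters survival after alkylation damage to DNA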 (primary screen). Cell system: Drosophila Kc167 cells. Reagents: long dsRNA against Drosophila genes, about 0.25 µg dsRNA per well. Time to read-out: about 6 days: 3 days knock-down, then 3 days with or without MMS. Conditions: methyl methanesulphonate 0.004% (w/v) for 3 days after knock-down. Measurement: 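ATP-dependent luminescence as a measure of live cells in MMS-exposed wells, quantile normalised within each plate, with replicate values also given as a mean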. Direction: mean viability with MMS and viability with MMS: higher = more surviving cells after MMS.
In all, the deposit lists about 23,000 reagents; this is an unselected part of those that have a named target and a result. 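Values are quantile-normalised luminescence on an arbitrary scale; higher means more cells surviving MMS.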

predicted target,amplicon,mean viability with MMS,"viability with MMS, replicate 1","viability with MMS, replicate 2"
mthl11 (GeneID 117467),DRSC12779,3.42e6,3.96e6,3.81e6
mAChR-B (GeneID 40955),DRSC16345,3.43e6,3.97e6,3.84e6
CG10958 (GeneID 31736),DRSC17768,3.48e6,4.01e6,3.98e6
nclb (GeneID 36150),DRSC07009,3.42e6,3.89e6,3.89e6
p-cup (GeneID 32727),DRSC19513,3.48e6,3.93e6,3.94e6
trbd (GeneID 41179),DRSC16494,3.49e6,3.91e6,3.99e6
RpL10 (GeneID 43864),DRSC11947,3.19e6,3.62e6,3.63e6
mri (GeneID 38028),DRSC08259,3.58e6,4.19e6,3.92e6
CG10005 (GeneID 41451),DRSC14172,3.43e6,4.05e6,3.78e6
mute (GeneID 2768848),DRSC06562,3.18e6,3.65e6,3.59e6
mute (GeneID 2768848),DRSC22931,2.95e6,3.71e6,3.71e6
crc (GeneID 47767),DRSC03513,3.37e6,3.85e6,3.73e6
Rad60 (GeneID 42748),DRSC15580,3.53e6,4.06e6,3.92e6
trio (GeneID 43974),DRSC07928,3.37e6,3.73e6,3.85e6
trio (GeneID 43974),DRSC08527,3.20e6,3.75e6,3.69e6
trio (GeneID 43974),DRSC08740,3.60e6,3.97e6,4.17e6
HnRNP-K (GeneID 43862),DRSC07585,3.52e6,3.96e6,4.03e6
HnRNP-K (GeneID 43862),DRSC22734,3.52e6,4.00e6,4.00e6
Inx2 (GeneID 31646),DRSC18783,3.60e6,4.06e6,4.01e6
CR30374 (GeneID 10178922),DRSC05080,3.56e6,4.05e6,4.03e6
Osi9 (GeneID 40763),DRSC12278,1.82e6,4.00e6,3.98e6
CG10222 (GeneID 39504),DRSC09714,3.49e6,3.94e6,3.96e6
CG30427 (GeneID 37986),DRSC04014,3.62e6,4.11e6,4.11e6
CG30427 (GeneID 37986),DRSC04311,3.54e6,4.01e6,3.89e6
CG30427 (GeneID 37986),DRSC04323,3.11e6,3.46e6,3.57e6
dpr6 (GeneID 50296),DRSC09005,3.17e6,3.64e6,3.67e6
dpr6 (GeneID 50296),DRSC10162,3.61e6,4.02e6,4.13e6
dpr6 (GeneID 50296),DRSC10163,2.01e6,4.24e6,4.07e6
CG2972 (GeneID 31943),DRSC18250,3.42e6,3.85e6,3.96e6
CG31675 (GeneID 318879),DRSC01825,3.63e6,4.14e6,4.08e6
Grasp65 (GeneID 40177),DRSC10917,3.48e6,3.85e6,4.02e6
CtsK2 (GeneID 36973),DRSC06897,3.57e6,4.07e6,4.01e6
CG4988 (GeneID 34586),DRSC02800,3.43e6,3.83e6,3.93e6
Swip-1 (GeneID 35158),DRSC02083,3.58e6,4.32e6,3.82e6
Swip-1 (GeneID 35158),DRSC02084,3.67e6,4.15e6,4.15e6
CG34224 (GeneID 5740585),DRSC05269,3.56e6,3.96e6,4.09e6
CG11714 (GeneID 3772566),DRSC09857,3.58e6,4.16e6,3.96e6
CG5715 (GeneID 42895),DRSC15860,3.57e6,4.04e6,4.06e6
CG5554 (GeneID 37775),DRSC04513,3.30e6,3.74e6,3.61e6
CG11356 (GeneID 32178),DRSC19401,3.51e6,4.04e6,3.91e6
CG10171 (GeneID 39501),DRSC09711,3.50e6,3.99e6,3.94e6
CG33635 (GeneID 3772540),DRSC00006,3.49e6,4.06e6,3.87e6
CG13930 (GeneID 38210),DRSC08399,3.53e6,3.98e6,4.02e6
CG1888 (GeneID 35979),DRSC06797,3.54e6,3.85e6,4.18e6
CG44085 (GeneID 34732),DRSC02922,2.73e6,3.48e6,3.48e6
CG44085 (GeneID 34732),DRSC23040,3.51e6,4.10e6,3.90e6

Targets above whose target name starts with H or h (2):
predicted target,amplicon,mean viability with MMS,"viability with MMS, replicate 1","viability with MMS, replicate 2"
HnRNP-K (GeneID 43862),DRSC07585,3.52e6,3.96e6,4.03e6
HnRNP-K (GeneID 43862),DRSC22734,3.52e6,4.00e6,4.00e6
